Among the data in paper PMC12373796 are binding values, retold here.

Sequences of proteins named here, by UniProt entry; tags and fusion partners are left off.
UniProt P50851: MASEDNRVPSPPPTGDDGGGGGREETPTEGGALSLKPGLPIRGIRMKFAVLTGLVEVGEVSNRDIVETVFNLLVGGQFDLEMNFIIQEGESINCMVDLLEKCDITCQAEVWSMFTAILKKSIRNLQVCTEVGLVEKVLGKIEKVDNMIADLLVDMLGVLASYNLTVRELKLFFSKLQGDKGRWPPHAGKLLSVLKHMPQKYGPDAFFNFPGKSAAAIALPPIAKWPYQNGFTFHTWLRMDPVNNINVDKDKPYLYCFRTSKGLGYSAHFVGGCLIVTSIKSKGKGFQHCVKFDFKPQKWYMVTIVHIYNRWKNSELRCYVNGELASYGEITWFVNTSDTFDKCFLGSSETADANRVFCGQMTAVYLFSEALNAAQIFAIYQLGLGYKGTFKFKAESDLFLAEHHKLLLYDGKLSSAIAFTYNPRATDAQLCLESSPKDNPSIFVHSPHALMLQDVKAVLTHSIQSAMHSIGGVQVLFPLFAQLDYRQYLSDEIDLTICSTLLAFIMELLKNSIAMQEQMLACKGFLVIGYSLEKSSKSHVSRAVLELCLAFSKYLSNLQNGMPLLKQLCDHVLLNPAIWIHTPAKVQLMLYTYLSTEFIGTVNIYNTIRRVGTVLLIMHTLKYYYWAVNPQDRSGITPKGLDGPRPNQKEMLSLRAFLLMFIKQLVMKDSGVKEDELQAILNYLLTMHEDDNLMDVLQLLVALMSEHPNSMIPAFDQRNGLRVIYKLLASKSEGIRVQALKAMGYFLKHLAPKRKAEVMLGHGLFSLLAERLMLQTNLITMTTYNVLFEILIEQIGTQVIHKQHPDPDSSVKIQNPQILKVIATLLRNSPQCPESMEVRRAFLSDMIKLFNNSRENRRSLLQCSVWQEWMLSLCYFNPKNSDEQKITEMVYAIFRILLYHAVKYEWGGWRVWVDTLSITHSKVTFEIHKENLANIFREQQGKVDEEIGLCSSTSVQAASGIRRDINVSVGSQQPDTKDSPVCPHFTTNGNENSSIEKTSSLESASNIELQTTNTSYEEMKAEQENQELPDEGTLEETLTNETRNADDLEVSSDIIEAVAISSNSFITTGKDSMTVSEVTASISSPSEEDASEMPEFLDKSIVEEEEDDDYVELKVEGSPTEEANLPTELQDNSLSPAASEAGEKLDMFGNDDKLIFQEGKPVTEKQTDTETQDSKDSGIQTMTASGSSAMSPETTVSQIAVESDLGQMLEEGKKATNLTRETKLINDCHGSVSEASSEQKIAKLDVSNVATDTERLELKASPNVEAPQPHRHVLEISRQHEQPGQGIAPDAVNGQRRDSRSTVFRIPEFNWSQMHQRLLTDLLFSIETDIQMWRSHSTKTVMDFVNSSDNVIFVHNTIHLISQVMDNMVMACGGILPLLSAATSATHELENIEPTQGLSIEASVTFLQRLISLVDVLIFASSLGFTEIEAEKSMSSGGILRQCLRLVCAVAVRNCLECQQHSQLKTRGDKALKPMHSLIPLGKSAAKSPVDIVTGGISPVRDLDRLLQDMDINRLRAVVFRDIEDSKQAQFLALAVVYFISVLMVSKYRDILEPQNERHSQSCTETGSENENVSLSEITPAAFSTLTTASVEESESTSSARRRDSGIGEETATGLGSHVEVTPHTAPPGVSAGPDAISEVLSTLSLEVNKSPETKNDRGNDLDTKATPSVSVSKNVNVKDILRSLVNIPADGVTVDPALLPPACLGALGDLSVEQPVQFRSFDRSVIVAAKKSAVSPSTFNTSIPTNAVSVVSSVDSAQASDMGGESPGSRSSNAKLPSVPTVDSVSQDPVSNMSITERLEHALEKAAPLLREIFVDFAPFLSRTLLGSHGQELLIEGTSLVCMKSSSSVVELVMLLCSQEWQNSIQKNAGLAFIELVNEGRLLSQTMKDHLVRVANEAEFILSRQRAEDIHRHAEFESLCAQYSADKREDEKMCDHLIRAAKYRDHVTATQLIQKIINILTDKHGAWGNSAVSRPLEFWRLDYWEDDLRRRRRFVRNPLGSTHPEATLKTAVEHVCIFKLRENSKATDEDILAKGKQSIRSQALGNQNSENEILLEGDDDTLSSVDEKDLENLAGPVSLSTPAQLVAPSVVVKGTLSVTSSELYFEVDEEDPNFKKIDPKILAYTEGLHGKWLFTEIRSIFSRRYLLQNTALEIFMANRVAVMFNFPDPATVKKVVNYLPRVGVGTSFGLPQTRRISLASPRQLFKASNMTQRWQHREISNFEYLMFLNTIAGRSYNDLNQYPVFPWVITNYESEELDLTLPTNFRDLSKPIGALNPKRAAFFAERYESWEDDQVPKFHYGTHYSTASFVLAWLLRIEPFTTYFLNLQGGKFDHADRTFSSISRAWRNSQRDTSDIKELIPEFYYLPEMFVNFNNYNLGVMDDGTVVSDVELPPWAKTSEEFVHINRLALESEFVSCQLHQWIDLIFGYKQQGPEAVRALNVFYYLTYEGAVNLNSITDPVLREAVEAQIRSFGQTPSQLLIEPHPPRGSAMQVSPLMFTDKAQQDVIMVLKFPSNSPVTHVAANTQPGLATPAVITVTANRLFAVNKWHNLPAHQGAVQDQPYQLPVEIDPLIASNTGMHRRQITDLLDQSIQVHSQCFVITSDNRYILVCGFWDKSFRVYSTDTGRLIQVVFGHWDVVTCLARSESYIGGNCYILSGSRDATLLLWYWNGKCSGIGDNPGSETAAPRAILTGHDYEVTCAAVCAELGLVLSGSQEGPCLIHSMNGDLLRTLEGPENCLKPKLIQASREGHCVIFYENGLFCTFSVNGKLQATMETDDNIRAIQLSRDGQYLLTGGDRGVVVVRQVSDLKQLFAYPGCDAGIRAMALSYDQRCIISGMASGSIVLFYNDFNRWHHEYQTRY
UniProt Q8NEB9: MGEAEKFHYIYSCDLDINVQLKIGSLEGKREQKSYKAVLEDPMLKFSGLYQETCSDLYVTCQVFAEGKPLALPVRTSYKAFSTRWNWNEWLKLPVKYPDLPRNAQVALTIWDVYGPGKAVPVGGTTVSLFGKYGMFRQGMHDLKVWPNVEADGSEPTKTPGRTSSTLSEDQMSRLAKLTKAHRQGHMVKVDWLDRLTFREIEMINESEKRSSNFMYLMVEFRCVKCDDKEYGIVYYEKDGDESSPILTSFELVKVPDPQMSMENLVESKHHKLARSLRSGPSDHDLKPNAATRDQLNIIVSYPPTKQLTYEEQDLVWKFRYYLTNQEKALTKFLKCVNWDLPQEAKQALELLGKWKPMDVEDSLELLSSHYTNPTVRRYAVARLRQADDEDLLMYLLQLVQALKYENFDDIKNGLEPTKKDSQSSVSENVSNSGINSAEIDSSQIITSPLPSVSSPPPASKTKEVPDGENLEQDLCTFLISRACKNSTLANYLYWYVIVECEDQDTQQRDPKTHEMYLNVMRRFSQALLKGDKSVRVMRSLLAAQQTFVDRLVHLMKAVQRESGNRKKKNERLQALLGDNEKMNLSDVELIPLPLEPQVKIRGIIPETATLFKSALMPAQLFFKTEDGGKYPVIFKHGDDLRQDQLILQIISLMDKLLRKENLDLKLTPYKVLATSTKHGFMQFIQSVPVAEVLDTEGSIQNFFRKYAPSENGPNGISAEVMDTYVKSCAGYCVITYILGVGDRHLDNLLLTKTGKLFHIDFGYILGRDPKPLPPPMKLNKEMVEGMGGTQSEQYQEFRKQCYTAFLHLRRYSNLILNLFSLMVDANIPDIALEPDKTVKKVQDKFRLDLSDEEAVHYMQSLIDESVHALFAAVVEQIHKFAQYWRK
UniProt Q99570: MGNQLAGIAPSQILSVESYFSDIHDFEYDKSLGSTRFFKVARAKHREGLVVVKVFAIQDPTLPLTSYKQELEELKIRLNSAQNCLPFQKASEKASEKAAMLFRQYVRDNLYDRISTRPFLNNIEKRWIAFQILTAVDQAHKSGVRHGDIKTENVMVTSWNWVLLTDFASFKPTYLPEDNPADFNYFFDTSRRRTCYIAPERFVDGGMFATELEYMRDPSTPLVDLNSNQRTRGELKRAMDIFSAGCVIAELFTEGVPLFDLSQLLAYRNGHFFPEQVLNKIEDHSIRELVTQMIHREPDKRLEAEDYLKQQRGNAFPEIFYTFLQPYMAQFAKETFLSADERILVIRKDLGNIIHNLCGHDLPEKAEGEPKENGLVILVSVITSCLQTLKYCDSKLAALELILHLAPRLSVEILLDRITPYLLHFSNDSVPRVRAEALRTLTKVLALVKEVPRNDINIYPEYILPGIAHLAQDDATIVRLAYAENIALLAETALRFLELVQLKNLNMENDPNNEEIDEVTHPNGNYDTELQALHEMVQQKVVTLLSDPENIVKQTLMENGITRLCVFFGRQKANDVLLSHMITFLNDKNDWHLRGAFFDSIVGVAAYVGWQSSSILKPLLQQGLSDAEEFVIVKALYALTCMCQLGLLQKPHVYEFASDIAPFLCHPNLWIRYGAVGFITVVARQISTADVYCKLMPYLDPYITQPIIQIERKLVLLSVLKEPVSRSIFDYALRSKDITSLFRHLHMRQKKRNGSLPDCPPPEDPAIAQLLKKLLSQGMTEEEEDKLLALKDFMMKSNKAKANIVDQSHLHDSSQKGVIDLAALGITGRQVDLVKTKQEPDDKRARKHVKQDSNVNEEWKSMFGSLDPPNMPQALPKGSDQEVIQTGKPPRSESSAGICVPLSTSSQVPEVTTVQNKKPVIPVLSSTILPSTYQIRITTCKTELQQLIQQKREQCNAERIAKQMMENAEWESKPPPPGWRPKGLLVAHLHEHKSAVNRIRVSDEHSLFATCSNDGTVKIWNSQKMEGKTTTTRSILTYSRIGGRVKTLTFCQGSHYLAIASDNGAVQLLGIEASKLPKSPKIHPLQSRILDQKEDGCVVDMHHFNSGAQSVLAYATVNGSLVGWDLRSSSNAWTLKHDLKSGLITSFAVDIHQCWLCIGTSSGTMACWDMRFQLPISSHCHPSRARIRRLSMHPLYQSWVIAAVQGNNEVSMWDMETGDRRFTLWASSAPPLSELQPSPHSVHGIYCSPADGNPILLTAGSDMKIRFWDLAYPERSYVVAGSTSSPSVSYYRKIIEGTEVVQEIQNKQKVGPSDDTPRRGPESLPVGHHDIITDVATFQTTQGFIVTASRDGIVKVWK
UniProt Q14457: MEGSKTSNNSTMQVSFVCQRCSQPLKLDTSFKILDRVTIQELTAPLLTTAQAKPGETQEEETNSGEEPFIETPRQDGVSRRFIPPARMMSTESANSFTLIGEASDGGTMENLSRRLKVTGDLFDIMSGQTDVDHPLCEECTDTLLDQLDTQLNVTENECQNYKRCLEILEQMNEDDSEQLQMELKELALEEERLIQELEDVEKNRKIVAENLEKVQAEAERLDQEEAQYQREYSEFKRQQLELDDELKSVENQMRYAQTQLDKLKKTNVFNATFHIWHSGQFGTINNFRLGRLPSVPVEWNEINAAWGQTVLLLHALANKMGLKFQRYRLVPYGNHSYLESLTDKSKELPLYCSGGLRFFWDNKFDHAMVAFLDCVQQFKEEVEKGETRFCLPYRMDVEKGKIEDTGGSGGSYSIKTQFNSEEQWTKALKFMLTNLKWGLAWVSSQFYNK
UniProt Q6ZNE5: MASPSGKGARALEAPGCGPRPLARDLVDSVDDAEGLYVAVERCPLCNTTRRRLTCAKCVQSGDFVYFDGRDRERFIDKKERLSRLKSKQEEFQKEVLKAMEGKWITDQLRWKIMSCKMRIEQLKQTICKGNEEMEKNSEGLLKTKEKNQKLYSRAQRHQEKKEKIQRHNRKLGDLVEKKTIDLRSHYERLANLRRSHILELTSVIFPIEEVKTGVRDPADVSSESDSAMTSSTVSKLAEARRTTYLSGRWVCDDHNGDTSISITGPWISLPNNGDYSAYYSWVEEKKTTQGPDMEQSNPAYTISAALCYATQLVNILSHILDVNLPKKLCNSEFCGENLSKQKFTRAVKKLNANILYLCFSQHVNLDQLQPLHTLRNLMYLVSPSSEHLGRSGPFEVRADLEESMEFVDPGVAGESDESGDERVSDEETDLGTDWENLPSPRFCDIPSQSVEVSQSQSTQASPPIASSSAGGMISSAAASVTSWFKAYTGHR

Like-named read-outs stand apart in the source and are kept apart here. Results are given in words; binding and its absence hold for the method and conditions named. In cells and extracts the contact can be indirect. Some entries that bind do so weakly or less than the wild type. For some of these results: Sequences can lack the tags named with a protein.

Experiment [1] concerns the target Human LRBA full-length tagged to Myc-DDK (human) (UniProt P50851). Description: co-IP; HEK293T WT cells co-transfected with Myc-LRBA and the partner's plasmid; immunoprecipitation with anti-LRBA (or anti-IgG), Dynabeads protein G; blotted for PIK3R4, VPS34 or GFP; IP buffer 50 mM Tris-HCl pH 6.8, 150 mM NaCl, 0.2% NP-40, 1 mM EDTA.
Experiment [2] concerns the target VPS34, endogenous (human (endogenous in LCL)) (UniProt Q8NEB9). The experiment in a line: proximity ligation; Duolink in situ PLA on fixed (4% PFA) and permeabilised (0.1% Triton X-100) LCL cells of healthy donors and LRBA-deficient patients, resting conditions; endogenous proteins.
The target in experiment [3] is phosphoinositide 3-kinase regulatory subunit 4 (PIK3R4), endogenous (human (endogenous in HEK293T and LCL)) (UniProt Q99570). The experiment is described as above.
Experiment [4] deals with Beclin-1, endogenous (human (endogenous in LCL)) (UniProt Q14457). Described as above.
Experiment [5] has as its target phosphoinositide 3-kinase regulatory subunit 4 (PIK3R4), endogenous (human (endogenous in HEK293T and LCL)) (UniProt Q99570). Description: co-IP; endogenous proteins in WT and LRBA-KO HEK293T cells; PIK3R4 immunoprecipitated with anti-PIK3R4, Dynabeads protein G, blotted for LRBA; IP buffer 50 mM Tris-HCl pH 6.8, 150 mM NaCl, 0.2% NP-40, 1 mM EDTA.
Experiment [6] deals with Human LRBA full-length tagged to Myc-DDK (human) (UniProt P50851). Description: co-IP; HEK293T WT cells co-transfected with Myc-LRBA and the partner's plasmid; immunoprecipitation with anti-LRBA (or anti-IgG), Dynabeads protein G; blotted for PIK3R4, VPS34 or GFP; IP buffer 50 mM Tris-HCl pH 6.8, 150 mM NaCl, 0.2% NP-40, 1 mM EDTA. The source holds these as a separate data set.

Consider GFP-ATG14L (from UniProt Q6ZNE5 1-492), for which the binding result in experiment [1] was “no binding”. Same read-out and setting: as for “His-tagged full-length PIK3R4 (from UniProt Q99570 1-1358)”, the entry is “binds”. Consider “lipopolysaccharide-responsive beige-like anchor protein (LRBA), endogenous (from UniProt P50851 1-2863)”, for which the binding entry is given as “no binding” in experiment [2], “binds” in experiment [3], “no binding” in experiment [4] and “binds” in experiment [5].

B1: GFP-FYCO1 (protein, UniProt Q9BQS8 1-1478)
chain: MASTNAESQLQRIIRDLQDAVTELSKEFQEAGEPITDDSTSLHKFSYKLEYLLQFDQKEKATLLGNKKDYWDYFCACLAKVKGANDGIRFVKSISELRTSLGKGRAFIRYSLVHQRLADTLQQCFMNTKVTSDWYYARSPFLQPKLSSDIVGQLYELTEVQFDLASRGFDLDAAWPTFARRTLTTGSSAYLWKPPSRSSSMSSLVSSYLQTQEMVSNFDLNSPLNNEALEGFDEMRLELDQLEVREKQLRERMQQLDRENQELRAAVSQQGEQLQTERERGRTAAEDNVRLTCLVAELQKQWEVTQATQNTVKELQTCLQGLELGAAEKEEDYHTALRRLESMLQPLAQELEATRDSLDKKNQHLASFPGWLAMAQQKADTASDTKGRQEPIPSDAAQEMQELGEKLQALERERTKVEEVNRQQSAQLEQLVKELQLKEDARASLERLVKEMAPLQEELSGKGQEADQLWRRLQELLAHTSSWEEELAELRREKKQQQEEKELLEQEVRSLTRQLQFLETQLAQVSQHVSDLEEQKKQLIQDKDHLSQQVGMLERLAGPPGPELPVAGEKNEALVPVNSSLQEAWGKPEEEQRGLQEAQLDDTKVQEGSQEEELRQANRELEKELQNVVGRNQLLEGKLQALQADYQALQQRESAIQGSLASLEAEQASIRHLGDQMEASLLAVRKAKEAMKAQMAEKEAILQSKEGECQQLREEVEQCQQLAEARHRELRALESQCQQQTQLIEVLTAEKGQQGVGPPTDNEARELAAQLALSQAQLEVHQGEVQRLQAQVVDLQAKMRAALDDQDKVQSQLSMAEAVLREHKTLVQQLKEQNEALNRAHVQELLQCSEREGALQEERADEAQQREEELRALQEELSQAKCSSEEAQLEHAELQEQLHRANTDTAELGIQVCALTVEKERVEEALACAVQELQDAKEAASREREGLERQVAGLQQEKESLQEKLKAAKAAAGSLPGLQAQLAQAEQRAQSLQEAAHQELNTLKFQLSAEIMDYQSRLKNAGEECKSLRGQLEEQGRQLQAAEEAVEKLKATQADMGEKLSCTSNHLAECQAAMLRKDKEGAALREDLERTQKELEKATTKIQEYYNKLCQEVTNRERNDQKMLADLDDLNRTKKYLEERLIELLRDKDALWQKSDALEFQQKLSAEERWLGDTEANHCLDCKREFSWMVRRHHCRICGRIFCYYCCNNYVLSKHGGKKERCCRACFQKLSEGPGSPDSSGSGTSQGEPSPALSPASPGPQATGGQGANTDYRPPDDAVFDIITDEELCQIQESGSSLPETPTETDSLDPNAAEQDTTSTSLTPEDTEDMPVGQDSEICLLKSGELMIKVPLTVDEIASFGEGSRELFVRSSTYSLIPITVAEAGLTISWVFSSDPKSISFSVVFQEAEDTPLDQCKVLIPTTRCNSHKENIQGQLKVRTPGIYMLIFDNTFSRFVSKKVFYHLTVDRPVIYDGSDFL
As for B1, the binding result in experiment [6] was “binds”.
